{"source": "patent US5721213A", "about": "(Nippon Steel Corporation, priority 1993, dated 1998)", "experiment": "general procedure: Fmoc solid-phase peptide synthesis; p-Alkoxybenzyl alcohol-type resin", "settings": "whole synthesis, scale 0.25 mmol, acetate", "note": "HELM strings list residues between dots; [ac] is acetyl, [am] amide, other brackets name non-standard units."}
{"substance": "PEPTIDE1{P.S.A.[Sar].D.W}$$$$V2.0", "values": [{"measurement": "isolated mass", "result": 34, "unit": "mg"}]}
